For at least one entry, the source does not settle the construct or the ends of the probe. Where cells or extracts were used, other partners may take part.
Test system: E47 (TCF3/E2A) (Homo sapiens)
Assay: EMSA
Settings: protein in an extract

Chains of the proteins cited; added tags and fusions are not shown. Where a name states a change or a piece, a line headed by the entry shows the natural chain unless it says otherwise. A line that says so, or that is headed by a name, gives the form on record, which may keep a tag or linker.
E47 (TCF3/E2A) (Homo sapiens), one chain, as listed by the source: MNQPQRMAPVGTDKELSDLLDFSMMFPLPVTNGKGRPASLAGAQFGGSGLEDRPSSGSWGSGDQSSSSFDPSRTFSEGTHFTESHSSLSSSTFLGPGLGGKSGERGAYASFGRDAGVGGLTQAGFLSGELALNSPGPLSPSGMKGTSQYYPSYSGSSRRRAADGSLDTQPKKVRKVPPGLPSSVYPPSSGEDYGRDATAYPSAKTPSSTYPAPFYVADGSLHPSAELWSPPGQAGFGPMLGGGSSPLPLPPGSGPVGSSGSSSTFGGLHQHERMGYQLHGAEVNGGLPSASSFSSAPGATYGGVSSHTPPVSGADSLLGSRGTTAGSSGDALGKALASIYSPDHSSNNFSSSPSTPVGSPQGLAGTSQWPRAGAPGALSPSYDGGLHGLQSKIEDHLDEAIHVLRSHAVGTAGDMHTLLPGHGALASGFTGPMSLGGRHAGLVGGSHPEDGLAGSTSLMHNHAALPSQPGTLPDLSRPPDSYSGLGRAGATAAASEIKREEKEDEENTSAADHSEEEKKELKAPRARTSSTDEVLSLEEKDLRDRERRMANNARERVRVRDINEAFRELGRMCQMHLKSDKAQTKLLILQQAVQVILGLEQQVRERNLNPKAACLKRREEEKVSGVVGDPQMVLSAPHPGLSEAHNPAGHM

Sequence: CGGGCCGGCAGCAGCGGCTGGAGTCGTATGGCAGTGAGCCGCTGTCTACC (double strand) [EXO1P_rs1776180_G]
- binding result: binds

From patent US20110027783
